Results are given in words; binding and its absence hold for the method and conditions named. Binding calls can cover weak binding; strength is not graded here.
Key:
[1] = molecular target: T1, AtTTG1 (Arabidopsis) (UniProt Q9XGN1); assay: two-hybrid; Matchmaker Gold Yeast Two-Hybrid System; baits in pGBKT7, prey MrMYB6 in pGADT7, co-transferred into Y2H yeast; growth and alpha-galactosidase activity on SD/-Leu/-Trp/-His/-Ade with X-alpha-Gal
T1 sequence: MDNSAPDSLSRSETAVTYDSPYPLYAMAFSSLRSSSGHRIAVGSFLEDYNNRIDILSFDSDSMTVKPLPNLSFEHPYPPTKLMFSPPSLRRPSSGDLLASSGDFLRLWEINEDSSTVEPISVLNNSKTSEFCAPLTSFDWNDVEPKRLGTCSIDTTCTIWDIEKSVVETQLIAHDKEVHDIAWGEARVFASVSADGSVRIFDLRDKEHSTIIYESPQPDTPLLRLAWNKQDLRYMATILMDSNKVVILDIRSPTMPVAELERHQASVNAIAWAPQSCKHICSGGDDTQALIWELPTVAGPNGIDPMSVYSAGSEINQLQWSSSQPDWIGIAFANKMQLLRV

[2] = molecular target: T2, AtTT8 (Arabidopsis) (UniProt Q9FT81); assay: as above
T2 sequence: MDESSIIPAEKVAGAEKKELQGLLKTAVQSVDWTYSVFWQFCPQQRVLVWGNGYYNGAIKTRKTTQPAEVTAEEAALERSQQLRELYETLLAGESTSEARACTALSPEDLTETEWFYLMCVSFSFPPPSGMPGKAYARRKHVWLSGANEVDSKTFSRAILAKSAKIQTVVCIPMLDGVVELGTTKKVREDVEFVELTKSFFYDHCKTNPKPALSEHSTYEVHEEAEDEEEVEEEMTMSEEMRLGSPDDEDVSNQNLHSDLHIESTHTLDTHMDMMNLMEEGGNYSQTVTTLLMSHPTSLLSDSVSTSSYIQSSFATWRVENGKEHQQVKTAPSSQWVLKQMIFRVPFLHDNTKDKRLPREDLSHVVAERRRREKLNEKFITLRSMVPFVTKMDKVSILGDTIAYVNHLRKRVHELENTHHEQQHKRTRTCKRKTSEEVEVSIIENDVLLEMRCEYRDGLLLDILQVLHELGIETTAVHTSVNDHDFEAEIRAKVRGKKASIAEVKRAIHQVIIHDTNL

binding [1]: binds
binding [2]: binds
Substance: MrMYB6
